Source: ChEMBL document CHEMBL3988442, “University of Dundee, Small-Polar-MMV Screening Library” (2021).

By UniProt entry, the sequences of proteins in these tests, tags left out. Residues count along the entry.
UniProt P9WFT3, whole entry: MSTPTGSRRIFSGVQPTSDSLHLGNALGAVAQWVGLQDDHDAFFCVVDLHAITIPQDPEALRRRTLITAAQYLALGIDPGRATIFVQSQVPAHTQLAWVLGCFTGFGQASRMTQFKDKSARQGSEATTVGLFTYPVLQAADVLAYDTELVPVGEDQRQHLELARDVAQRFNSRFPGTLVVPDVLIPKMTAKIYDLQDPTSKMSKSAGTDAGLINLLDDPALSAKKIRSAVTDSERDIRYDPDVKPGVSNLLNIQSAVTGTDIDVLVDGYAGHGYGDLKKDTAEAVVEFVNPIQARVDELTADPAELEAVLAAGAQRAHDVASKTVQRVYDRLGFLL
UniProt P9WPC5, whole entry: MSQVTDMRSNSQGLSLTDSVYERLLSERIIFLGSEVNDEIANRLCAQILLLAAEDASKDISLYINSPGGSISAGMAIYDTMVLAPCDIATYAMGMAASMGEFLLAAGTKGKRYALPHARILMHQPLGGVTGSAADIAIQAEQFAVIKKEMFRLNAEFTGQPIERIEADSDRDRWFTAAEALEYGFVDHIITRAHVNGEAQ
UniProt P9WPC3, whole entry partner: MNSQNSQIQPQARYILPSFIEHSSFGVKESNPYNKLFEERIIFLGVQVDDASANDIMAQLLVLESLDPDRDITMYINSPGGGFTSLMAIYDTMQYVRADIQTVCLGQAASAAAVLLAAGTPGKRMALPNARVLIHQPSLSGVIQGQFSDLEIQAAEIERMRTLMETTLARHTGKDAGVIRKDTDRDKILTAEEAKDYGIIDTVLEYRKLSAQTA
UniProt Q4DA54, 1-478: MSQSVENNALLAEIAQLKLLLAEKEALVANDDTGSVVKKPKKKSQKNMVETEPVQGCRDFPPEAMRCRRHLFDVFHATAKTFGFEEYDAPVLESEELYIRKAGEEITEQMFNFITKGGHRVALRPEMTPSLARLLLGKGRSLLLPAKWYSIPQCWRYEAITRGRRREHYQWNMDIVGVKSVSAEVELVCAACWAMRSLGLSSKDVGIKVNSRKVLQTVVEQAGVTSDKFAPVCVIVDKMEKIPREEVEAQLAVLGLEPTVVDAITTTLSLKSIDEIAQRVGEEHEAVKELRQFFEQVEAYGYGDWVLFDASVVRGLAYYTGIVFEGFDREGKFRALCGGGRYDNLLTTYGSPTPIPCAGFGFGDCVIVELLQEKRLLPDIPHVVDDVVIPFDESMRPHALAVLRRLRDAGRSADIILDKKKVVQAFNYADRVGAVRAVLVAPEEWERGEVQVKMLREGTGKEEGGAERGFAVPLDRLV

Each number is a percent effect as filed.
The record does not define 0% and 100%; most values in the screen are far below 50% and negative numbers occur (in some assays of this library far below -100).
The compounds are a random part of those screened.

MtTrpRS: 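Tryptophan-tRNA ligase, Mycobacterium tuberculosis (UniProt P9WFT3). Enzyme assay of tryptophanyl-tRNA synthetase; the read-out is not stated. Compounds at 10 µM. Direction is not recorded; retested compounds ran higher, which suggests that high means inhibition. Size under these conditions: about 65,000 compounds, about 64 of them at 50% or above in at least one test.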
ClpP1P2: 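Protease assay of ClpP1P2, read by the AMC dye that it sets free. Target: ClpP1P2, Mycobacterium tuberculosis (UniProt P9WPC5 and UniProt P9WPC3). Concentration: 50 µM. Higher reads as stronger inhibition, judged from the few compounds that gave an IC50. Most other retested compounds had strongly negative values. Size under these conditions: about 69,000 compounds, about 10 of them at 50% or above in at least one test.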
TcHisRS: 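Enzyme assay of histidyl-tRNA synthetase; the read-out is not stated. Target: Histidine-tRNA ligase, Trypanosoma cruzi CL Brener (UniProt Q4DA54). Compounds at 30 µM. The record gives no direction; compounds that gave an IC50 in retests scored well above the rest, so higher reads as stronger inhibition. Size under these conditions: about 69,000 compounds, about 31 of them at 50% or above in at least one test.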

{"structure": "Cc1nc(C2CCN(C)CC2)cc(N2CCOc3ccc(Cl)cc3C2)n1", "MtTrpRS": 3.086, "ClpP1P2": -12.86, "TcHisRS": 17.86}
{"structure": "Cc1cccnc1C(Cc1ccsc1)NC(=O)Cn1cccnc1=O", "stereo": "stereo not given", "ClpP1P2": 3.147, "TcHisRS": 13.33}
{"structure": "CCN1CC2(CC1=O)CN(Cc1ccoc1)CCN(C(=O)C(C)C)C2", "stereo": "stereo not given", "MtTrpRS": -1.106, "ClpP1P2": 9.141, "TcHisRS": -2.439}
{"structure": "Cc1cc(NC(=O)CNC(C)(C)c2nc(C)c(C)s2)no1", "MtTrpRS": 2.626, "ClpP1P2": -14.74, "TcHisRS": 10.13}
{"structure": "O=C(Nc1ccc(CC(=O)N2CCSCC2)cc1)NC1CC1", "MtTrpRS": 6.259, "ClpP1P2": -2.488, "TcHisRS": 1.093}
{"structure": "COCCNC(=O)[C@H]1CN(c2ncccn2)C[C@H]2OCC[C@@H]12", "MtTrpRS": -8.148, "ClpP1P2": -8.94, "TcHisRS": 1.97}
{"structure": "CN(Cc1ccc(C#N)cc1)Cc1noc(C(C)(C)C)n1", "MtTrpRS": 1.243, "ClpP1P2": 1.817, "TcHisRS": 0.8368}
{"structure": "O=S(=O)(Cc1ccccc1CN1CCOCC(O)C1)c1ccccc1", "stereo": "stereo not given", "MtTrpRS": -1.632, "ClpP1P2": 10.73, "TcHisRS": 2.299}
{"structure": "CCCS(=O)(=O)N1CCCC(c2cccc(C(=O)O)c2)C1", "stereo": "stereo not given", "MtTrpRS": -1.143, "ClpP1P2": -10.38, "TcHisRS": 1.163}
{"structure": "COc1cccc(OCc2nnc3n2N=C(C(C)(C)C)CS3)c1", "MtTrpRS": -0.2865, "ClpP1P2": -4.83, "TcHisRS": 6.316}
{"structure": "Cc1cc(C)nc(NC2CCCN(CCCc3ccccc3)C2)n1", "stereo": "stereo not given", "MtTrpRS": 0.3871, "ClpP1P2": 27.31, "TcHisRS": 11.11}
{"structure": "CCN(Cc1ccoc1)C(=O)c1cc(C)c(C)c(S(N)(=O)=O)c1", "MtTrpRS": -3.667, "ClpP1P2": -4.409, "TcHisRS": 2.646}
{"structure": "CC(C)C(=O)N1CCCC12CCN(C(=O)c1ccno1)C2", "stereo": "stereo not given", "MtTrpRS": -2.164, "ClpP1P2": 0.895, "TcHisRS": -11.49}
{"structure": "CCc1ccc(CN2CCc3[nH]nc(C(=O)N4CCNC(=O)C4)c3C2)o1", "MtTrpRS": -0.3236, "ClpP1P2": -7.588, "TcHisRS": 2.532}
{"structure": "CN(C)c1ncccc1NC(=O)COC1CCCC1", "MtTrpRS": 2.832, "ClpP1P2": -10.66, "TcHisRS": 1.818}
{"structure": "CN(C)[C@@H]1CN(C(=O)COc2cccc(F)c2)C[C@H]1O", "ClpP1P2": 1.306, "TcHisRS": 12.09}
{"structure": "CCCC(NC(=O)c1cc(C)c(F)cc1F)c1nnn[nH]1", "stereo": "stereo not given", "MtTrpRS": 1.665, "ClpP1P2": -0.61, "TcHisRS": 8.333}
{"structure": "CCc1nc(CN(C)CC(N)=O)cs1", "MtTrpRS": -5.501, "ClpP1P2": -15.63, "TcHisRS": 6.857}
{"structure": "Cc1ccc(N2CC[C@H]3CO[C@H](CN(C)Cc4ccco4)[C@H]3C2)nn1", "ClpP1P2": -13.1, "TcHisRS": 10.61}
{"structure": "CCc1cc(CN(C)C(=O)c2cnn[nH]2)on1", "MtTrpRS": -3.61, "ClpP1P2": -14.56, "TcHisRS": 1.064}
{"structure": "O=C1CC(N(C(=O)c2csc(-c3ccccc3)n2)C2CC2)C(=O)N1", "stereo": "stereo not given", "MtTrpRS": 12.61, "ClpP1P2": 0.3314, "TcHisRS": 3.185}